PfKRS1: 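Lysine-tRNA ligase, Plasmodium falciparum 3D7 (UniProt Q8IDJ8). Enzyme assay of the cytosolic lysyl-tRNA synthetase in 384-well plates, read by luminescence. Concentration: 30 µM. Direction is inferred from only a few compounds that gave an IC50; most scored high, so higher reads as stronger inhibition. Of about 69,000 compounds tested this way, about 49 (0.071%) reached 50% or more in at least one test.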
MtTrpRS: 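Enzyme assay of tryptophanyl-tRNA synthetase; the read-out is not stated. Target: Tryptophan-tRNA ligase, Mycobacterium tuberculosis (UniProt P9WFT3). Compounds at 10 µM. Higher most likely means stronger inhibition; the record gives no direction and few retests gave an IC50. About 65,000 compounds were tested under these conditions; 0.098% (about 64) showed 50% or more at least once.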

Chains of the proteins cited; added tags and fusions are not shown. Residues count along the entry.
UniProt Q8IDJ8, 1-583: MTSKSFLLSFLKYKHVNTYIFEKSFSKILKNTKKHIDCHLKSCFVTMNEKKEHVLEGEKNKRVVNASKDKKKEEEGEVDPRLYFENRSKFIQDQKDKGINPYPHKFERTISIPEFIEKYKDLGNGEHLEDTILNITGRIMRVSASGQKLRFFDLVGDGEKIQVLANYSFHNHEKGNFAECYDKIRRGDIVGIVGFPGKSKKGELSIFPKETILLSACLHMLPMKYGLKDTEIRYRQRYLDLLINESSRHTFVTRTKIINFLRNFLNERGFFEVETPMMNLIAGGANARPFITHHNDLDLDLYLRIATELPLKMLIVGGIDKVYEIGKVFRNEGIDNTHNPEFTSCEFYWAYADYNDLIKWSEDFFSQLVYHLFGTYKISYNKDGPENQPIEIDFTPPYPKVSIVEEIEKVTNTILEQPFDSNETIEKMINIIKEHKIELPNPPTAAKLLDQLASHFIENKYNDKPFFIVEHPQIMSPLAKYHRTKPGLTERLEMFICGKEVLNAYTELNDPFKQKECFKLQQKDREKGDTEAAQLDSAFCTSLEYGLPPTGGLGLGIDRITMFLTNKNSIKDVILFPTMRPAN
UniProt P9WFT3, whole entry: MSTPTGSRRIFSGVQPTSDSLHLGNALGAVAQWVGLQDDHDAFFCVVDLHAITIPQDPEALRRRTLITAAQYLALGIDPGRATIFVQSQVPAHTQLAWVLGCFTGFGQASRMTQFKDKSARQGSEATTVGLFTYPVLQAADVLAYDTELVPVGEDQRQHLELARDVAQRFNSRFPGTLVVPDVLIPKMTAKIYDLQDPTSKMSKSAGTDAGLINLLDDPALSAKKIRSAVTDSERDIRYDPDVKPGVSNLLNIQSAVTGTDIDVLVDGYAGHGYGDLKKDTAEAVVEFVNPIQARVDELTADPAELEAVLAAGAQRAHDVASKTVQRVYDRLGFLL

Values are the deposited “Percent Effect”, in %.
The record does not define 0% and 100%; most values in the screen are far below 50% and negative numbers occur (in some assays of this library far below -100).
This is an unselected part of the compounds tested.

C[C@@H]1CN(C2(C(=O)N3CCNCC3)Cc3ccccc3C2)C[C@H](C)O1 gave PfKRS1: 6.291%; MtTrpRS: 2.008%. Result for Cc1ccc(OCC(=O)NCc2ccccc2F)nc1 was PfKRS1: 1.681%; MtTrpRS: 2.549%. CNC(=O)c1nc(CN2CCOC(CCCC(C)C)C2)no1 (centres undefined) read PfKRS1: 3.573%; MtTrpRS: 0.819%. With CS(=O)(=O)c1cn[nH]c1C1CCCCN1C(=O)c1cnccn1 (centres undefined) the screen gave PfKRS1: 0.9908%; MtTrpRS: -0.9855%. With CCCN1CCc2nc(SCc3ccccc3)[nH]c(=O)c2C1 the screen gave PfKRS1: 2.456%; MtTrpRS: 5.091%. CN(C)c1ncccc1C(=O)N1CCCN(c2cccnn2)CC1 read PfKRS1: -0.2624%; MtTrpRS: -4.15%. c1ncn(CC2CN(Cc3nc(-c4ccsc4)no3)CCO2)n1 (centres undefined) read PfKRS1: 0.9203%; MtTrpRS: -3.327%.

Result for CC(C1CCN(Cc2cnn(C)c2C2CC2)CC1)N1CCN(C)CC1 (centres undefined) was PfKRS1: 1.048%; MtTrpRS: -2.993%. CC(C)CN1C[C@H]2CCN(C(=O)c3ccccn3)CC[C@H]2S1(=O)=O read PfKRS1: 2.483%; MtTrpRS: -6.831%. For Cc1noc([C@@]23CCO[C@@H]2CCN(Cc2scnc2C)C3)n1 the result was PfKRS1: 3.366%. With N#Cc1ccc(OC2CCN(C(=O)c3cncc(Br)c3)CC2)nc1 the screen gave PfKRS1: 5.254%; MtTrpRS: 0.9382%. COc1ccc2[nH]nc(CN3CCC(C(C)N(C)C)CC3)c2c1 (centres undefined) gave PfKRS1: 0.2908%; MtTrpRS: -2.716%. CN(C)c1ncc(-c2cccc(C(N)=O)c2)c(C2CNCCO2)n1 (centres undefined) gave PfKRS1: 0.304%; MtTrpRS: -4.777%. Result for CCOc1ccnc(N2CCN(C(=O)CCc3cnn(C)c3)CC2)n1 was PfKRS1: 2.088%; MtTrpRS: 4.534%.

With CN(C)Cc1cnc(C2CCN(C(=O)c3cc(F)cc(F)c3)C2)[nH]1 (centres undefined) the screen gave PfKRS1: 4.741%; MtTrpRS: -3.43%. Result for Cn1cc(C2CCCN2C(=O)c2cnc(-c3ccccn3)s2)cn1 (centres undefined) was PfKRS1: 5.913%; MtTrpRS: 0.2581%. Result for O=C(NCc1csc(Cc2ccccc2)n1)C1NCCc2[nH]cnc21 (centres undefined) was PfKRS1: 0.2656%; MtTrpRS: -2.026%. O=C1NCCO[C@H]2CN(C(=O)Cc3csc4ccccc34)CC[C@@H]12 gave PfKRS1: 8.957%; MtTrpRS: -1.881%. For Cc1ccc(CN2C[C@H]3CC[C@@H]2CN(Cc2[nH]cnc2C)C3)o1 the result was PfKRS1: 5.092%; MtTrpRS: 2.026%. With CCC(Oc1ccc(N(C)S(C)(=O)=O)cc1)C(=O)NC (centres undefined) the screen gave PfKRS1: 1.722%; MtTrpRS: -1.547%. COCCn1ccnc1C1CCN(C(=O)CSc2nnc(C)s2)CC1 read PfKRS1: 5.167%; MtTrpRS: 0.6803%.

With CCCN1CC2(CCN(c3ccc(C(C)=O)cn3)CC2)CC1C(=O)O (centres undefined) the screen gave PfKRS1: 2.37%; MtTrpRS: -0.7819%. Result for COC1CN(C(=O)C2CC2)CCC(=O)N(C)c2ccccc21 (centres undefined) was PfKRS1: 5.277%. CCc1ncc(CN2C[C@H]3CC[C@@H]2CN(C(=O)C2CCC2)C3)cn1 read PfKRS1: 3.376%; MtTrpRS: -5.636%. For COc1ccc(OCCNc2cccc(C(=O)N3CCOCC3)c2)cc1 the result was PfKRS1: 1.915%; MtTrpRS: -0.8392%. Result for O=C(CN1CCCNC1=O)Nc1ccccc1SC(F)(F)F was PfKRS1: 0.541%; MtTrpRS: -0.2865%. For Cc1ccc(NC2CCN(C(=O)c3n[nH]c4ccccc34)CC2)nn1 the result was PfKRS1: 0.4187%; MtTrpRS: 0.9291%. O=C(Nc1ccccc1F)c1nn(C2CCS(=O)(=O)C2)c2c1CCCC2 (centres undefined) read PfKRS1: 5.028%; MtTrpRS: 4.61%.

For CC(C)N1CCC2(CC1)C(=O)N(c1cccnc1)c1ccc(F)cc12 the result was PfKRS1: 3.525%; MtTrpRS: -5.007%. Cc1cnc2c(c1NCc1ccc(F)cc1)c(=O)n(C)c(=O)n2C read PfKRS1: 1.7%; MtTrpRS: -2.157%. Result for Cc1noc(C)c1C(=O)N1CCSc2ccc(Cl)cc21 was PfKRS1: 0.3138%; MtTrpRS: 1.008%. For Cc1noc(C)c1CN1C(=O)[C@H]2CC[C@@H]1CN(Cc1ccc(Cl)cc1)C2 the result was PfKRS1: 2.113%; MtTrpRS: 0.277%. N#Cc1cccc(-c2ncnn2CC2(O)CCCCC2)c1 gave PfKRS1: 4.091%; MtTrpRS: 4.152%. With CSC(C)C(=O)N1CCCN(Cc2cnn(C(C)C)c2)CC1 (centres undefined) the screen gave PfKRS1: 4.455%; MtTrpRS: -4.773%. With N#Cc1c(-c2ccccc2)csc1N the screen gave PfKRS1: 9.237%; MtTrpRS: 2.591%.

With CC(COc1ccccc1)NS(C)(=O)=O (centres undefined) the screen gave PfKRS1: -2.428%; MtTrpRS: -9.262%. CCOCC(O)CN1CCN(C(=O)c2cc(Cl)ccc2F)CC1 (centres undefined) gave PfKRS1: 1.438%; MtTrpRS: -4.206%.

Repeated from the top, 4 entries:

Compound	PfKRS1	MtTrpRS
C[C@@H]1CN(C2(C(=O)N3CCNCC3)Cc3ccccc3C2)C[C@H](C)O1	6.291%	2.008%
Cc1ccc(OCC(=O)NCc2ccccc2F)nc1	1.681%	2.549%
CNC(=O)c1nc(CN2CCOC(CCCC(C)C)C2)no1 (centres undefined)	3.573%	0.819%
CS(=O)(=O)c1cn[nH]c1C1CCCCN1C(=O)c1cnccn1 (centres undefined)	0.9908%	-0.9855%

Data taken from ChEMBL document CHEMBL3988442, “University of Dundee, Small-Polar-MMV Screening Library” (2021).